# Cleaved PARP after 72 h of treatment

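Human melanoma cells were exposed to a pair of drugs for 72 h in 1,536-well plates and read by automated microscopy after fixing and staining. Values are the share of nuclei positive for cleaved PARP as a percentage of the same share in the DMSO control: 100 is the control level, higher means more apoptosis. Concentrations were fixed for each drug; these are the higher of two levels. The file gives one value for each pair and line, without errors, so small differences may be noise. Basal and induced levels differ widely between cell lines.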
Only some of the drugs and lines screened are listed, without regard to their results.
An entry leaves out what has no value listed here.

Compounds and concentrations:
lenalidomide (5 µM): Nc1cccc2c1CN(C1CCC(=O)NC1=O)C2=O (centres unmarked)
perifosine (2 µM): CCCCCCCCCCCCCCCCCCOP(=O)([O-])OC1CC[N+](C)(C)CC1
veliparib (7 µM): C[C@]1(c2nc3c(C(N)=O)cccc3[nH]2)CCCN1
midostaurin (0.4 µM): CO[C@@H]1[C@H](N(C)C(=O)c2ccccc2)C[C@H]2O[C@]1(C)n1c3ccccc3c3c4c(c5c6ccccc6n2c5c31)C(=O)NC4
nilutamide (5 µM): CC1(C)NC(=O)N(c2ccc([N+](=O)[O-])c(C(F)(F)F)c2)C1=O
GW441756 (2 µM): Cn1cc(/C=C2\C(=O)Nc3cccnc32)c2ccccc21
gemcitabine (0.002 µM): Nc1ccn([C@@H]2O[C@H](CO)[C@@H](O)C2(F)F)c(=O)n1
TCS401 (8.33 µM): O=C(O)C(=O)Nc1sc2c(c1C(=O)O)CCNC2
crizotinib (1 µM): C[C@@H](Oc1cc(-c2cnn(C3CCNCC3)c2)cnc1N)c1c(Cl)ccc(F)c1Cl
AZD7762 (0.1 µM): NC(=O)Nc1cc(-c2cccc(F)c2)sc1C(=O)N[C@H]1CCCNC1
CX-4945 (2 µM): O=C(O)c1ccc2c(c1)nc(Nc1cccc(Cl)c1)c1ccncc12
JZL184 (5 µM): O=C(Oc1ccc([N+](=O)[O-])cc1)N1CCC(C(O)(c2ccc3c(c2)OCO3)c2ccc3c(c2)OCO3)CC1
nilotinib (1 µM): Cc1cn(-c2cc(NC(=O)c3ccc(C)c(Nc4nccc(-c5cccnc5)n4)c3)cc(C(F)(F)F)c2)cn1
pazopanib (2 µM): Cc1ccc(Nc2nccc(N(C)c3ccc4c(C)n(C)nc4c3)n2)cc1S(N)(=O)=O
MK-1775 (0.1 µM): C=CCn1c(=O)c2cnc(Nc3ccc(N4CCN(C)CC4)cc3)nc2n1-c1cccc(C(C)(C)O)n1
PF-562271 (0.4 µM): CN(c1ncccc1CNc1nc(Nc2ccc3c(c2)CC(=O)N3)ncc1C(F)(F)F)S(C)(=O)=O
Src-I1 (10 µM): COc1cc2ncnc(Nc3ccc(Oc4ccccc4)cc3)c2cc1OC
PLX4720 (0.4 µM): CCCS(=O)(=O)Nc1ccc(F)c(C(=O)c2c[nH]c3ncc(Cl)cc23)c1F
everolimus (0.1 µM): CO[C@H]1C[C@@H]2CC[C@@H](C)[C@@](O)(O2)C(=O)C(=O)N2CCCC[C@H]2C(=O)O[C@H]([C@H](C)C[C@@H]2CC[C@@H](OCCO)[C@H](OC)C2)CC(=O)[C@H](C)/C=C(\C)[C@@H](O)[C@@H](OC)C(=O)[C@H](C)C[C@H](C)/C=C/C=C/C=C/1C
LFM-A13 (10 µM): C/C(O)=C(\C#N)C(=O)Nc1cc(Br)ccc1Br
cediranib (2 µM): COc1cc2c(Oc3ccc4[nH]c(C)cc4c3F)ncnc2cc1OCCCN1CCCC1

- pazopanib and veliparib : WM3526: 87.3; WM1745: 112; C32: 47.3; SK-MEL-2: 108; SK-MEL-5: 134
- CX-4945 and cediranib : WM3526: 587; WM1745: 147; C32: 397; SK-MEL-2: 200; SK-MEL-5: 217
- PLX4720 and MK-1775 : WM3526: 624; WM1745: 606; C32: 223; SK-MEL-2: 168; SK-MEL-5: 272
- nilutamide and TCS401 : WM3526: 93.8; WM1745: 103; C32: 110; SK-MEL-2: 222; SK-MEL-5: 280
- nilotinib and midostaurin : WM3526: 463; WM1745: 291; C32: 178; SK-MEL-2: 258; SK-MEL-5: 307
- lenalidomide and Src-I1 : WM3526: 193; WM1745: 171; C32: 96.7; SK-MEL-2: 106; SK-MEL-5: 136
- gemcitabine and GW441756 : WM3526: 70.9; C32: 73.6; SK-MEL-2: 30.7; SK-MEL-5: 109
- AZD7762 and lenalidomide : WM3526: 374; WM1745: 170; C32: 252; SK-MEL-2: 168; SK-MEL-5: 200
- cediranib and PF-562271 : WM3526: 155; WM1745: 126; C32: 102; SK-MEL-5: 209
- LFM-A13 and midostaurin : WM3526: 151; WM1745: 294; C32: 233; SK-MEL-2: 187; SK-MEL-5: 367
- JZL184 and everolimus : WM3526: 179; C32: 78.2; SK-MEL-2: 125; SK-MEL-5: 114
- crizotinib and perifosine : WM3526: 97.0; WM1745: 179; C32: 36.6; SK-MEL-2: 95.8; SK-MEL-5: 114

The last 2 entries again:

* JZL184 and everolimus : WM3526: 179; C32: 78.2; SK-MEL-2: 125; SK-MEL-5: 114
* crizotinib and perifosine : WM3526: 97.0; WM1745: 179; C32: 36.6; SK-MEL-2: 95.8; SK-MEL-5: 114

Source: doi:10.1371/journal.pone.0140310, primary screening data, rounded.